PubChem BioAssay AID743454, Peter MacCallum Cancer Centre – 2014

Test: 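Knock-downs lowering viability or raising caspase 3/7 activity in vorinostat-treated resistant cells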 (primary screen)
Cells: human HCT116-VR colon cancer cells, selected for vorinostat resistance
Reagent: siRNA pool against human genes, 40 nM siRNA pool
Duration: vorinostat for 24 h, read-out about 72 h after transfection
Conditions: vorinostat at 2.5 µM final
Read-out: 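Cell viability by CellTiter-Fluor and caspase 3/7 activity by luminescence, each scaled to mock wells per plate, duplicates averaged, then robust z-scored over all plates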
Direction: viability robust z-score: higher = more viable cells than screen typical; caspase robust z-score: higher = more caspase 3/7 activity than screen typical
Active means: 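Hits are knock-downs in viability class RV1/RV2 or caspase class CA1/CA2, excluding ones that killed cells in the no-drug cell-count arm; hits then retested with single siRNAs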
In all, the deposit lists about 18,000 reagents; shown is an unselected part. Over the whole deposit, 450 (2.5%) are marked active. 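Single biological run; no consistent viability z cut-off exists, so the class columns, not z-scores, define the calls.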 Entries without a mark were called inactive.

Target gene,viability hit class,caspase hit class,viability robust z-score,caspase robust z-score
OSBPL1A,no change,no change,0.92,0.42
F8,no change,no change,-1.88,0.88
LYRM4,no change,no change,-0.48,0.3
PGLYRP1,no change,no change,0.63,-0.59
TM4SF20,no change,no change,1.82,0.64
C11orf24,no change,no change,-0.46,1.26
JADE1,no change,no change,0.28,1.06
ATP2B2,no change,no change,-1.82,1.81
MDFI,no change,no change,1.23,0
BFSP2,no change,no change,0.05,1.65
MSH2,no change,no change,0.05,0.82
FARP2,no change,no change,0.7,-0.58
SNAPC4,no change,no change,-0.6,1.87
FCGR3A,no change,no change,-1.13,1.23
WASHC2C,no change,no change,-0.26,1.05
MYH4,no change,no change,-2.88,5.11
FOXRED2,no change,no change,-0.03,-0.32
MRPL14,no change,no change,0.58,-0.7
RMND1,no change,no change,1.36,0.24
DEFB123,no change,no change,0.84,-0.29
TMEM263,no change,no change,-2.48,3.56
RBMY1E,no change,no change,-0.3,-0.92
PHF20,no change,no change,-0.37,-0.06
SHARPIN,no change,no change,-0.5,3.47
REG3G,no change,no change,0.07,0.46
ZNF30,no change,no change,0.3,-0.7
VPS13C,no change,no change,-0.06,-0.82
PIGW,no change,no change,0.88,0
ANKRD33,no change,no change,0.19,-0.24
PRKAR1A,no change,no change,0.4,0.08
EIF5,no change,no change,-1.82,2.42
CEP63,no change,no change,0.52,-0.88
BMP2,no change,no change,0.68,-0.83
OR4D1,no change,no change,-0.24,0.4
TMEM92,no change,no change,1.89,0.94
ALDH4A1,no change,no change,0.2,-0.66
IWS1,no change,no change,0.23,-1
C1orf56,no change,no change,0.41,0
PEBP1,no change,no change,0.6,-0.21
LSR,no change,no change,-1.46,1.58
CYP4A11,no change,no change,0.64,1.31
TSBP1,no change,no change,0.81,0.82
MMRN2,no change,no change,-1.17,-0.43
B3GAT3,no change,no change,0.34,0.03
TMEM127,no change,no change,0.26,-0.26
PRRX2,no change,no change,1.62,-0.46
MRGPRG,no change,no change,-1.05,3.02
CLCN3,no change,no change,-0.28,-0.87
TMPRSS4,no change,no change,-1.46,1.75
KRABD2,no change,no change,0.32,-0.76
ARAP1,no change,no change,-0.32,-0.05
NUP210,no change,no change,0.68,-0.54
ABI2,no change,no change,1.12,-0.06
SEMA6A,no change,no change,-0.36,-0.46
RNF215,no change (active),CA2 (caspase activation),-4.79,6.2
FSHR,no change,no change,-1.39,4.54
AMOTL1,no change,no change,-0.42,-0.2
PCDHB9,no change,no change,1.34,0.06
PRKRIP1,no change,no change,1.44,-0.35
NPAS4,no change,no change,-0.55,-0.18
ZNF510,no change,no change,0.01,-0.84
PCOLCE,no change,no change,-0.27,2.33
UNC5CL,no change,no change,0.16,-0.74
DPPA4,no change,no change,0.73,-0.22
ZNF367,no change,no change,-0.32,-0.41
ATP8B2,no change,no change,-1.95,2.24
FABP5,no change,no change,-0.1,-1.08
SIGLEC5,no change,no change,0.26,-0.57
UFM1,no change,no change,1.23,-0.21
GLRA4,no change,no change,-0.43,1.25
SERPINB11,no change,no change,0.06,-1.12
RAB40AL,no change,no change,-0.02,-0.36
TMEM60,no change,no change,0.44,0.98

Already shown: entries from further up.
Target gene,viability hit class,caspase hit class,viability robust z-score,caspase robust z-score
LYRM4,no change,no change,-0.48,0.3
PGLYRP1,no change,no change,0.63,-0.59
TM4SF20,no change,no change,1.82,0.64
C11orf24,no change,no change,-0.46,1.26
JADE1,no change,no change,0.28,1.06
ATP2B2,no change,no change,-1.82,1.81
MDFI,no change,no change,1.23,0
BFSP2,no change,no change,0.05,1.65
MSH2,no change,no change,0.05,0.82
FARP2,no change,no change,0.7,-0.58
